Results: article PMC7293217, “TECPR1 promotes aggrephagy by direct recruitment of LC3C autophagosomes to lysosomes” (Nature Communications, 2020)
Where a chain is given by its changes, count along the chain named. These are yes or no findings as the source states them, for the method shown. In cells and extracts the contact can be indirect. Some binding calls cover weakened binding; strength is not graded here. For some assays here: Tags and fused reporters may be left off the sequences shown.

The chains behind the UniProt entries cited, without tags or fusion partners. Residues count along the entry.
UniProt Q9BXW4, residues 1-126: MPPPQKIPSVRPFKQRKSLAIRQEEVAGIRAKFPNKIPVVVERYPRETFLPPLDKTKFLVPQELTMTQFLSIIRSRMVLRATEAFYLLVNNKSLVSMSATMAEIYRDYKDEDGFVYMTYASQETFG

Assays:
GFP-TECPR1 (human) = target: T1, GFP-TECPR1 (human) (UniProt Q7Z6L1); assay: co-IP; HeLa cells expressing GFP-TECPR1 or GFP transfected with HA-tagged hATG8s; lysate on GFP Trap magnetic beads overnight at 4 °C; wash 10 mM Tris-HCl pH 7.5, 150 mM NaCl, 0.5 mM EDTA; immunoblot
T1 sequence: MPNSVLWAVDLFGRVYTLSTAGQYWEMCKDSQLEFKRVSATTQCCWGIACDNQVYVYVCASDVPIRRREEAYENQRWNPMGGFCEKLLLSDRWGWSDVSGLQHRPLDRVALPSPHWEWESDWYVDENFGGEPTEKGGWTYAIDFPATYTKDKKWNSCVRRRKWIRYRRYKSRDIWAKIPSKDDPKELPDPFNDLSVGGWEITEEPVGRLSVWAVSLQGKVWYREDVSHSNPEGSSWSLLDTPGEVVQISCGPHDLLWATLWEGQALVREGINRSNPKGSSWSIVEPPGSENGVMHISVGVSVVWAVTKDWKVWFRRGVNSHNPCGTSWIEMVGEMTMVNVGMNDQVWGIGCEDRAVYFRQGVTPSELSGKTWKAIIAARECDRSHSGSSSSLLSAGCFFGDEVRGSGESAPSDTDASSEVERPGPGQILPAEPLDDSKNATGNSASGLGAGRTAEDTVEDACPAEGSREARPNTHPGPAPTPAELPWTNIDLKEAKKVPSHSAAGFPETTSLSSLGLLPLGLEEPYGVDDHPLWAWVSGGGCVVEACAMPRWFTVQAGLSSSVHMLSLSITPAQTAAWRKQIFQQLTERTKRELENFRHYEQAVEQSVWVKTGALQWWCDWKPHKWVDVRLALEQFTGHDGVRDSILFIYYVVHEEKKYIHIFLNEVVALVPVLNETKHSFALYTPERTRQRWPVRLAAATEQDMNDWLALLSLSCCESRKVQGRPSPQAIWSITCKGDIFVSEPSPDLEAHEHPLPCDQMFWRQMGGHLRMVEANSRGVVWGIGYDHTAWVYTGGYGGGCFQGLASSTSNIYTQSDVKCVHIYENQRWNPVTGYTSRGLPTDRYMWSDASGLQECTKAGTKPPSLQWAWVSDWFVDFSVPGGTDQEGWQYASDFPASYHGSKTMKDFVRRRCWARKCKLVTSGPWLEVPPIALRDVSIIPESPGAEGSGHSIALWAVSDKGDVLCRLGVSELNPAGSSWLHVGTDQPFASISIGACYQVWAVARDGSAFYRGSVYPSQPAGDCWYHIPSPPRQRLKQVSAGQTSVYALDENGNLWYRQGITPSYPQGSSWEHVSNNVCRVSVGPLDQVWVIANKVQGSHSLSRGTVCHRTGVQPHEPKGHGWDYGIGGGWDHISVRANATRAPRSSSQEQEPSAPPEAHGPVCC

[1] = target: T2, TECPR1^W175A/I178A (co-immunoprecipitation) (human) (UniProt Q7Z6L1); assay: as above
T2 sequence: T1 sequence with W175A, I178A

binding (GFP-TECPR1 (human)): binds
binding [1]: binds
Substance: HA-LC3C (from UniProt Q9BXW4 1-126)
